Measured data: PubChem BioAssay AID504774 (Drosophila RNAi Screening Center, 2011)
In all, the deposit lists about 23,000 reagents; below is a random part of those with a known target gene and a result. 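Values are quantile-normalised luminescence on an arbitrary scale; higher means more cells surviving MMS.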

- Assay: 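Knock-downs that shift viability of MMS-exposed cells relative to untreated ones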 (primary screen)
- Cell system: Drosophila Kc167 cells
- Knock-down reagent: long dsRNA against Drosophila genes, about 0.25 µg dsRNA per well
- Timing: about 6 days: 3 days knock-down, then 3 days with or without MMS
- Treatment: methyl methanesulphonate 0.004% (w/v) for 3 days after knock-down
- Detection: 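ATP-dependent luminescence as a measure of live cells in MMS-exposed wells, quantile normalised within each plate, with replicate values also given as a mean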
- Reading the numbers: mean viability with MMS and viability with MMS: higher = more surviving cells after MMS

| predicted target | amplicon | mean viability with MMS | viability with MMS, replicate 1 | viability with MMS, replicate 2 |
| --- | --- | --- | --- | --- |
| mfrn | DRSC15687 | 3.21e6 | 3.62e6 | 3.60e6 |
| wbl | DRSC07718 | 3.54e6 | 3.96e6 | 4.05e6 |
| CG13795 | DRSC02299 | 3.50e6 | 3.94e6 | 4.01e6 |
| eIF3a | DRSC12339 | 3.13e6 | 3.62e6 | 3.60e6 |
| Mccc1 | DRSC15417 | 3.63e6 | 4.22e6 | 4.00e6 |
| pasi2 | DRSC16380 | 3.44e6 | 3.94e6 | 3.90e6 |
| CG2006 | DRSC15412 | 3.61e6 | 4.00e6 | 4.18e6 |
| Or67c | DRSC11242 | 3.45e6 | 3.91e6 | 3.89e6 |
| CG7430 | DRSC10845 | 3.47e6 | 3.97e6 | 3.87e6 |
| CG12209 | DRSC06119 | 3.48e6 | 4.00e6 | 3.91e6 |
| CG4582 | DRSC15605 | 3.59e6 | 3.96e6 | 4.19e6 |
| CG4935 | DRSC01924 | 3.62e6 | 4.15e6 | 4.05e6 |
| Ripalpha | DRSC02657 | 3.62e6 | 4.03e6 | 4.17e6 |
| Sec5 | DRSC00714 | 3.65e6 | 4.25e6 | 4.06e6 |
| Ptx1 | DRSC16804 | 3.45e6 | 3.88e6 | 3.90e6 |
| Nup107 | DRSC01999 | 3.03e6 | 3.56e6 | 3.61e6 |
| ND-30 | DRSC08243 | 3.44e6 | 3.83e6 | 3.98e6 |
| spag | DRSC04717 | 3.48e6 | 3.81e6 | 4.06e6 |
| CG13323 | DRSC06360 | 3.46e6 | 3.90e6 | 4.05e6 |
| CG31220 | DRSC22248 | 3.47e6 | 3.95e6 | 3.94e6 |
| koi | DRSC04980 | 3.61e6 | 4.23e6 | 3.90e6 |
| CG18641 | DRSC00527 | 3.43e6 | 3.86e6 | 3.87e6 |
| CG8188 | DRSC20090 | 3.65e6 | 4.10e6 | 4.14e6 |
| Ak6 | DRSC07274 | 3.64e6 | 4.07e6 | 4.28e6 |
| CG14416 | DRSC18639 | 3.48e6 | 3.99e6 | 3.92e6 |
| CG34214 | DRSC04490 | 3.74e6 | 4.12e6 | 4.32e6 |
| MED10 | DRSC10474 | 3.27e6 | 3.70e6 | 3.67e6 |
| Sobp | DRSC07312 | 3.55e6 | 4.04e6 | 4.02e6 |

No new results follow: entries from further up.
| predicted target | amplicon | mean viability with MMS | viability with MMS, replicate 1 | viability with MMS, replicate 2 |
| --- | --- | --- | --- | --- |
| spag | DRSC04717 | 3.48e6 | 3.81e6 | 4.06e6 |
| CG13323 | DRSC06360 | 3.46e6 | 3.90e6 | 4.05e6 |
| CG31220 | DRSC22248 | 3.47e6 | 3.95e6 | 3.94e6 |
| koi | DRSC04980 | 3.61e6 | 4.23e6 | 3.90e6 |
